Experiments:
Type in all cases: cell-based, human
SKNO-1 cells = assay: Antiproliferation assay; settings: read-out: Antiproliferative activity EC50, SKNO-1
Jurkat leukemia cells = assay: Antiproliferation assay; settings: read-out: Antiproliferative activity EC50, Jurkat
[1] = system: Kasumi-1 and SKNO-1 cells; assay: Antiproliferation assay, R-E leukemia cells; settings: less active than Bet
MV4-11 cells = assay: Antiproliferation assay; settings: read-out: Antiproliferative activity EC50, MV4-11
Kasumi-1 cells = assay: Antiproliferation assay; settings: read-out: Antiproliferative activity EC50, Kasumi-1
NB4 cells = assay: Antiproliferation assay; settings: read-out: Antiproliferative activity EC50, NB4
[2] = system: normal fibroblast WI-38 cells; assay: Antiproliferation assay; settings: read-out: Antiproliferative activity EC50, WI-38
[3] = system: MCF-7 (breast cancer) cells; assay: Antiproliferation assay; settings: read-out: Antiproliferative activity EC50, MCF-7

## CC(=O)OCC(=O)[C@@]1(O)[C@@H](C)C[C@H]2[C@@H]3CCC4=CC(=O)C=C[C@]4(C)[C@@]3(F)[C@@H](O)C[C@@]21C [Bet-Ac, betamethasone-21-acetate]
SKNO-1 cells
  EC50: 0.12 µM
Jurkat leukemia cells
  EC50: > 50 µM
[1]
  Activity compared to Bet (fold less): ~ 2 fold
MV4-11 cells
  EC50: > 50 µM
Kasumi-1 cells
  EC50: 0.05 µM
NB4 cells
  EC50: > 50 µM
[2]
  EC50: > 50 µM
[3]
  EC50: > 50 µM

Reference: paper PMC5928880 (Theranostics, 2018)
